{
  "source": "patent US7498421B2",
  "about": "“Degradation fragments” (Medical Research Council, priority 2001, dated 2009)",
  "key": {"HSP 70": {"tested_on": "HSP 70", "experiment": "Induction of heat shock proteins in rat brain: HSP 70", "assay_type": "in vivo", "settings": "underlying cortex where applied"}, "HSP 32": {"tested_on": "HSP 32", "experiment": "Induction of heat shock proteins in rat brain: HSP 32", "assay_type": "in vivo", "settings": "underlying cortex where applied"}, "HSP 25": {"tested_on": "HSP 25", "experiment": "Induction of heat shock proteins in rat brain: HSP 25", "assay_type": "in vivo", "settings": "underlying cortex where applied; also localized to blood vessels"}, "[1]": {"settings": "cited from earlier work"}},
  "note": "At least one compound was matched to its structure with a doubt left.",
  "data": [
    {"compound": "C=CC1=C(C)/C(=C/c2[nH]c(Cc3[nH]c(/C=C4\\NC(=O)C(C)=C4C=C)c(C)c3CCC(=O)O)c(CCC(=O)O)c2C)NC1=O", "note": "[bilirubin]", "values": [
      {"measurement": "induction of HSP 70", "setting": "HSP 70", "result": "not evident"},
      {"measurement": "induction of HSP 32", "setting": "HSP 32", "result": "not evident"},
      {"measurement": "induction of HSP 25", "setting": "HSP 25", "result": "not evident"},
      {"measurement": "arterial spasm in vivo", "setting": "[1]", "result": "failed to develop significant arterial spasm"}
    ]}
  ]
}
